Some of these results come from one statement about several compounds together.
System: Phakopsora pachyrhizi
Assay: Protective control of soy bean rust on soy beans
Format: in vivo
Settings: 63 ppm active compound, soy bean seedlings sprayed 2 days before inoculation, assessed after fourteen days; untreated plants 90%
Protocol: This mixture was added to 25 mg of the compound to give a total of 5 mL. Water was then added to total volume of 100 mL. This stock solution was diluted with the described solvent-emulsifier-water mixture to the given concentration.
II.2) Protective Control of Soy Bean Rust on Soy Beans Caused by Phakopsora pachyrhizi
Leaves of pot-grown soy bean seedlings were sprayed to run-off with an aqueous suspension, containing the concentration of active ingredient or their mixture as described below. The plants were allowed to air-dry. The trial plants were cultivated for 2 day in a greenhouse chamber at 23 to 27° C. and a relative humidity between 60 and 80%.Then the plants were inoculated with spores of Phakopsora pachyrhizi. To ensure the success the artificial inoculation, the plants were transferred to a humid chamber with a relative humidity of about 95% and 20 to 24° C. for 24 hours. The trial plants were cultivated for fourteen days in a greenhouse chamber at 23 to 27° C. and a relative humidity between 60 and 80%. The extent of fungal attack on the leaves was visually assessed as % diseased leaf area.

For “N-[[4-[5-(trifluoromethyl)-1,2,4-oxadiazol-3-yl]phenyl]methyl]norbornane-2-carboxamide [Ex-2]”, the diseased leaf area was “at most 6%”.
